From PubChem BioAssay AID2685 (National Center for Advancing Translational Sciences (NCATS), 2010) come the findings set out here.

The nature of this experiment: qHTS Assay for Lipid Storage Modulators in Drosophila S3 Cells.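 As to cell number change: cells counted by Cell Tracker Red CMTPX staining in the red channel.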 Conditions: BODIPY lipid droplet fluorescence, 18-24 h; for cell number change: measured here: cell count max response, cells fed with added oleic acid. In outline: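 Drosophila S3 cells got compounds at several concentrations plus oleic acid (400 uM solution). Laser-scanning cytometry with 488 nm excitation read lipid droplets at 500-530 nm and cells at 575-640 nm. Percent activity was relative to 20 uM Triacsin C.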

Where [1] appears, read: measured here: cell number channel AC50, cells fed with added oleic acid.
Setting [2] is: measured here: lipid fluorescence (Fed channel) AC50, cells fed with added oleic acid.

This is one part of the list. These are further read-outs of the screen, such as a control signal, another cell line or another target. No call is given for them. Most of these compounds were active or inconclusive in the main read-out, so they are no random draw. Words in brackets tell the shape of the fitted curve; partial curves, single points and poor fits give uncertain potencies.

`Cc1ccc(NC2CCCN(C(=O)c3cccs3)C2)cc1C` (stereo not drawn): the cell number change is -39.9%. For the same molecule, under setting [1], the half-maximal activity concentration (AC50) (commonly the concentration at which the activity in the assay is half-maximal) is 29.1 µM [falling, single point].

Take `O=[n+]1cc(-c2ccccc2)n([O-])c2c1CCCCC2`: the concentration at half-maximal activity (AC50) under setting [2] is 29.1 µM [rising, single point].

On to `COc1ccc(CS(=O)/C(Cl)=C(/Cl)C(=O)Nc2ccc(OC)nc2)cc1` (stereo not drawn), for which the cell number change was -65.1%.

Take `COc1ccccc1C(=O)Nc1ccc(-c2nnn(CC(=O)N3CCN(C(=O)c4ccco4)CC3)n2)cc1`: the cell number change is -0.398%. The AC50 under setting [2] is 0.092 µM [rising, single point].

On to `CC(C)c1ccccc1OCC(=O)Nc1cc(S(=O)(=O)N2CCOCC2)ccc1N1CCCC1`, for which the cell number change turned out to be 0.486%. Under setting [2], the AC50 is 0.58 µM [rising, full curve, poor fit].

For the molecule `CC(=O)c1c(C)[nH]c(C(=O)OCc2ccccc2)c1C`, the cell number change stood at 15.8%. For the same molecule, under setting [2], the half-maximal activity concentration (AC50) is 1.64 µM [rising, full curve].

With `O=C(/C=C/c1ccc(O)cc1)OCc1occc(=O)c1O[C@@H]1OC(CO)[C@@H](O)[C@H](O)[C@@H]1O` (stereo partly drawn), the cell number change came to 0.208%. Besides, under setting [2], the half-maximal activity concentration (AC50) is 0.291 µM [rising, full curve, poor fit].

`CCOC(=O)C(C(=O)N(C)Cc1ccccc1)C1CCCCC1` (stereo not drawn): the cell number change is -17.9%. In addition, the AC50 under setting [2] was 4.11 µM [falling, single point].

With `Cc1cc(C(=O)NCC(=O)Nc2c(C)cccc2C)c2ccccc2n1`, the cell number change came out at 18.4%. Also, under setting [2], the half-maximal activity concentration (AC50) was 0.082 µM [rising, full curve].

For `CCNc1nc(Oc2ccc(C(=O)OCC)cc2)nc(SC)n1`, the cell number change was -9.16%. Besides, the half-maximal activity concentration (AC50) under setting [2] is 3.66 µM [rising, single point].

Turning to `CC(C)CC(COCc1ccc(F)cc1)N1CCN(C(=O)c2cccc(C(F)(F)F)c2)CCC1=O` (stereo not drawn), the cell number change amounted to 8.65%. Moreover, under setting [2], the AC50 was 1.84 µM [rising, full curve, poor fit].

For the molecule `O=C(CCN1c2ccccc2Sc2ccccc21)OCC(=O)N1CCN(C(=O)c2ccco2)CC1`, the cell number change was -14.8%. For the same molecule, under setting [2], the concentration at half-maximal activity (AC50) is 32.6 µM [falling, single point].

For the molecule `Cn1c(SCC(=O)NNC(=O)c2ccccc2)nnc1C1CC1`, the cell number change was 26.2%.

For the molecule `Cc1ccc(S(=O)(=O)N2CCSC2)cc1C`, the cell number change is -30.7%. For the same molecule, the AC50 under setting [1] is 1.84 µM [falling, full curve, poor fit]. For the same molecule, the concentration at half-maximal activity (AC50) under setting [2] was 2.31 µM [falling, full curve].

`O=C(CSc1nccn1-c1ccccc1)NCc1ccc2c(c1)OCO2`: the concentration at half-maximal activity (AC50) was 0.92 µM [rising, partial curve] under setting [1] and 1.3 µM [rising, full curve] under setting [2].

For the molecule `COc1ccc(/C=N/NC(=O)Cn2c(Cc3ccc(OC)c(OC)c3)nc3ccccc32)cc1`, the cell number change turned out to be 9.79%. Further, under setting [1], the AC50 is 6.51 µM [falling, single point].

As to `COc1ccc(N(C(=O)CNC(=O)c2cccs2)C(C(=O)NC2CCCC2)c2ccncc2)cc1` (stereo not drawn), the cell number change was 5.13%. Besides, under setting [2], the AC50 was 18.4 µM [rising, single point].

With `CCNc1nc(NCC)n2c(SCc3nc4ccccc4c(=O)[nH]3)nnc2n1`, the cell number change stood at 114%. Further, under setting [1], the AC50 is 1.46 µM [rising, full curve]. Besides, the concentration at half-maximal activity (AC50) under setting [2] was 1.84 µM [rising, partial curve].

Turning to `COc1ccc(-c2cc(C(=O)Nc3cc(C)on3)c3ccccc3n2)c(OC)c1`, the cell number change worked out at 20.8%. Besides, the concentration at half-maximal activity (AC50) under setting [2] is 6.51 µM [rising, single point].

In the case of `O=C(NCCC(=O)N(CCc1ccccc1)Cc1ccccc1)c1ccc(Br)cc1`, the cell number change turned out to be 30.9%. Besides, the concentration at half-maximal activity (AC50) under setting [1] was 2.31 µM [rising, full curve]. Besides, under setting [2], the half-maximal activity concentration (AC50) is 2.31 µM [rising, partial curve].

With `Cn1c(N)c(C(=O)COC(=O)C2CC(=O)N(Cc3ccccc3)C2)c(=O)n(C)c1=O` (stereo not drawn), the cell number change stood at 32.2%. Further, the AC50 under setting [1] was 3.26 µM [falling, single point]. For the same molecule, the half-maximal activity concentration (AC50) under setting [2] is 0.326 µM [rising, full curve, poor fit].

With `Cc1ccc(-c2nn(-c3ccc(F)cc3)cc2C(=O)N2CCN(C3CCS(=O)(=O)C3)CC2)cc1` (stereo not drawn), the cell number change is -1.47%.

With `COC(=O)c1cc(NC2c3ccccc3C(=O)N2Cc2ccco2)cc(C(=O)OC)c1` (stereo not drawn), the cell number change is 1.23%. The AC50 under setting [2] is 13 µM [rising, single point].

In the case of `O=C1CC(c2ccc(F)cc2)SC(N(c2ccccc2)c2ccccc2)=N1` (stereo not drawn), the cell number change was 21.5%. In addition, the AC50 under setting [2] is 25.9 µM [falling, single point].

With `COc1cc(/C=C2\SC(=S)N(NC(=O)c3cccc(O)c3)C2=O)ccc1O`, the cell number change was -89.2%. The concentration at half-maximal activity (AC50) under setting [1] was 3.66 µM [falling, full curve]. The AC50 under setting [2] was 3.26 µM [falling, full curve].

As for `Cc1cccc(C(CC(=O)O)n2cccc2)c1` (stereo not drawn), the cell number change was -44.1%. Besides, the concentration at half-maximal activity (AC50) under setting [1] was 2.91 µM [falling, full curve]. Under setting [2], the AC50 is 16.4 µM [falling, single point].

As to `Cc1cc(CN2CCCC(C(=O)Nc3ccc(-c4nc5ccccc5[nH]4)cc3)C2)n[nH]1` (stereo not drawn), the cell number change is -23.3%. Also, the AC50 under setting [2] was 29.1 µM [rising, single point].

For the molecule `O=C1Nc2ccccc2O/C1=C\c1ccccc1`, the cell number change is -2.82%. Under setting [2], the concentration at half-maximal activity (AC50) was 1.3 µM [rising, full curve].

`CCOc1ccccc1CN1CCNC(=O)C1CC(=O)N(C)Cc1nonc1C` (stereo not drawn): the cell number change is 5.95%. The half-maximal activity concentration (AC50) under setting [2] is 29.1 µM [rising, single point].

For `O=C(NC(CSCc1ccccc1)C(=O)N/N=C/c1ccc(O)cc1O)c1ccc([N+](=O)[O-])cc1` (stereo not drawn), the cell number change was -33.2%. For the same molecule, the AC50 under setting [1] is 6.51 µM [falling, full curve, poor fit]. In addition, under setting [2], the half-maximal activity concentration (AC50) is 0.461 µM [falling, full curve].

`CCOC(=O)[C@H]1CCC[C@@H](NS(=O)(=O)c2ccc(NC(C)=O)cc2)C1`: the cell number change was 70.4%. Also, the half-maximal activity concentration (AC50) under setting [1] is 16.4 µM [rising, partial curve]. The AC50 under setting [2] was 6.51 µM [rising, single point].

As for `O=C(Nc1ccc(Oc2ccccc2)cc1)C1CCN(c2c3c(nc4ncnn24)CCC3)CC1`, the cell number change is -60.4%. In addition, the AC50 under setting [1] was 18.4 µM [falling, partial curve]. Moreover, the AC50 under setting [2] was 18.4 µM [falling, partial curve].

As for `O=C(Cc1c(Cl)cccc1Cl)N/N=C/c1cccnc1`, the cell number change was found to be 15%. For the same molecule, under setting [2], the AC50 was 18.4 µM [rising, single point].

Consider `COc1ccc(NC(=O)CN2C(=O)COc3ccc(S(=O)(=O)N4CCCCC4)cc32)c(OC)c1`, for which the cell number change was 12.4%.

Take `CCOC(=O)N1CCN(C(=S)Nc2ccc3nc(N4CCN(CC)CC4)cc(C)c3c2)CC1`: the cell number change is -7.65%.
